Strings that start with PEPTIDE1 are HELM notation: dots part the residues, brackets hold end groups and non-standard residues. Square brackets hold non-standard residues; d marks the D form. * marks the point of attachment. Octanoyl = CCCCCCCC(=O)*; Aib = CC(C)(N)C(=O)O; Inp = O=C(O)C1CCNCC1
Experiment: general procedure: Fmoc solid-phase peptide synthesis; Rink Amide-MBHA resin (Novabiochem), substitution 0.64 mmol/g; HBTU/HOBT, DIEA in NMP
Conditions: whole synthesis, analytical HPLC, scale of the general procedure 0.1 mmol

Row | Substance | final HPLC purity
1 | (Ac-Inp^1, Aib^2, 10, Glu(NH-hexyl)^3)hGhrelin(1-28)-NH2 | 97.0%
2 | (Inp^1)hGhrelin(1-28)-NH2 | 96.2%
3 | (Inp^1, Aib^2)hGhrelin(1-28)-NH2 | 99.0%
4 | (Inp^1, Aib^2, 8)hGhrelin(1-28)-NH2 | 98.0%
5 | (Inp^1, Aib^2, 10)hGhrelin(1-28)-NH2 | 99.0%
6 | (Inp^1, Aib^2, 10, Glu(NH-hexyl)^3)hGhrelin(1-28)-NH2 | 97.8%
7 | (Inp^1, Aib^2, Glu(NH-hexyl)^3)hGhrelin(1-28)-NH2 | 99.0%
8 | (Inp^1, Aib^2, Ser(n-octanoyl)^17)hGhrelin(1-28)-NH2 | 98.0%
9 | (Inp^1, Ser(n-octanoyl)^17)hGhrelin(1-28)-NH2 | approximately 96.6%
10 | H-[Inp][Aib]S(Octanoyl)FLSP[Aib]HQRVQQRKS(Octanoyl)SKKPPAKLQPR-NH2 (N-terminus assumed; SMILES CCCCCCCC(=O)OC[C@H](NC(=O)[C@H](CCCCN)NC(=O)[C@H](CCCNC(=N)N)NC(=O)[C@H](CCC(N)=O)NC(=O)[C@H](CCC(N)=O)NC(=O)[C@@H](NC(=O)[C@H](CCCNC(=N)N)NC(=O)[C@H](CCC(N)=O)NC(=O)[C@H](Cc1c[nH]cn1)NC(=O)C(C)(C)NC(=O)[C@@H]1CCCN1C(=O)[C@H](CO)NC(=O)[C@H](CC(C)C)NC(=O)[C@H](Cc1ccccc1)NC(=O)[C@H](COC(=O)CCCCCCC)NC(=O)C(C)(C)NC(=O)C1CCNCC1)C(C)C)C(=O)N[C@@H](CO)C(=O)N[C@@H](CCCCN)C(=O)N[C@@H](CCCCN)C(=O)N1CCC[C@H]1C(=O)N1CCC[C@H]1C(=O)N[C@@H](C)C(=O)N[C@@H](CCCCN)C(=O)N[C@@H](CC(C)C)C(=O)N[C@@H](CCC(N)=O)C(=O)N1CCC[C@H]1C(=O)N[C@@H](CCCNC(=N)N)C(N)=O) | 99.0%
11 | PEPTIDE1{[1-Apc].[Aib].[Glu(NH-hexyl)].F.L.S.P.E.H.[Aib].R.V.Q.Q.R.K.E.S.K.K.P.P.A.K.L.Q.P.R.[am]}$$$$V2.0 | approximately 99.8%
12 | PEPTIDE1{[ac].[1-Apc].[Aib].[Glu(NH-hexyl)].F.L.S.P.E.H.[Aib].R.V.Q.Q.R.K.E.S.K.K.P.P.A.K.L.Q.P.R.[am]}$$$$V2.0 | approximately 97.5%
13 | [Inp^1, Aib^2, 10, Ser^3]hGhrelin(1-28)-NH2 | 99.9%
14 | [Inp^1, Aib^2, Ser^3, Ser(n-octanoyl)^17]hGhrelin(1-28)-NH2 | 99.0%
15 | [Inp^1, Aib^2, Ser^3]hGhrelin(1-28)-NH2 | 99.9%
16 | [Inp^1, Ser^3]hGhrelin(1-28)-NH2 | 99.5%

Same assay, conditions: whole synthesis, scale 0.1 mmol

Row | Substance | isolated mass [mg] | isolated yield [%]
17 | PEPTIDE1{[1-Apc].[Aib].[Glu(NH-hexyl)].F.L.S.P.E.H.[Aib].R.V.Q.Q.R.K.E.S.K.K.P.P.A.K.L.Q.P.R.[am]}$$$$V2.0 | 4.6 | 1.4
18 | PEPTIDE1{[ac].[1-Apc].[Aib].[Glu(NH-hexyl)].F.L.S.P.E.H.[Aib].R.V.Q.Q.R.K.E.S.K.K.P.P.A.K.L.Q.P.R.[am]}$$$$V2.0 | 1.5 | 0.5

Reference: patent publication US8299022B2 (IPSEN Pharma S.A.S., priority 2006, dated 2012)
